We go through one sequence from article PMC13186709.

For this series, the system named is Egalitarian (Egl) + Bicaudal D (BicD). Description: MST. Conditions: MST: 1 nM Cy5-RNA in GF150 (25 mM HEPES pH 7.3, 150 mM KCl, 1 mM MgCl2, 0.1 mM Mg-ATP, 5 mM DTT, 10% glycerol) + 0.05% Tween-20, 15 min, room temperature, recombinant protein, protein details: C-terminal TEV-ZZ (cleaved), label: 5'-Cy5.

The exact form of at least one protein or probe is not confirmed.

For the sequence “UUACACCACUUGAUUGUAUUUUUAAAUUAAUUCUUAAAAAUACAAUUAAGAUCACUCU [TLS∆b]”, the Kd is 6500 nM (prep 1 (order in figure)), 2360 nM (prep 2 (order in figure)) and 1820 nM (prep 3 (order in figure)).
